# From patent publication US20140045776A1, “METHOD FOR INCREASING THE SHELF LIFE OF FOOD PRODUCTS” (GALACTIC S.A., priority 2011, published 2014)
# Assays:
# [1] = Taste tests on minced meat by a panel of ten experienced testers; parameters: key: 0: no change in taste compared with a minced meat not containing potassium acetate; 1: change in taste compared with a minced meat not containing potassium acetate
# [2] = as above; settings: for maximum concentration before obtaining an impact on the taste: main-salt concentration 60%
# [3] = as above; parameters: key: 0: no change in taste compared with a minced meat not containing potassium lactate; 1: change in taste compared with a minced meat not containing potassium lactate
Compound,Taste ([1]; potassium acetate (main-salt concentration 60%) at 0.05%),Taste ([1]; potassium acetate (main-salt concentration 60%) at 0.1%),Taste ([1]; potassium acetate (main-salt concentration 60%) at 0.15%),Taste ([1]; potassium acetate (main-salt concentration 60%) at 0.2%),Taste ([1]; potassium acetate (main-salt concentration 60%) at 0.25%),concentration as from which an acidic taste is observed in the sample [2] [%],maximum concentration before obtaining an impact on the taste [2] [%],Taste ([3]; potassium lactate (main-salt concentration 60%) at 1%),Taste ([3]; potassium lactate (main-salt concentration 60%) at 2%),Taste ([3]; potassium lactate (main-salt concentration 60%) at 3%)
CC(=O)[O-].[K+] [potassium acetate],0,1,1,1,1,≥ 0.1,0.05,–,–,–
CC(O)C(=O)[O-].[K+] (centres unmarked) [potassium lactate],–,–,–,–,–,–,2,0,0,1
